Measurements taken from publication doi:10.1101/2022.08.02.502465.
These are yes or no findings as the source states them, for the method shown.

Amino acid sequences for entries named in this document (tags omitted).
UniProt P0A988, whole entry: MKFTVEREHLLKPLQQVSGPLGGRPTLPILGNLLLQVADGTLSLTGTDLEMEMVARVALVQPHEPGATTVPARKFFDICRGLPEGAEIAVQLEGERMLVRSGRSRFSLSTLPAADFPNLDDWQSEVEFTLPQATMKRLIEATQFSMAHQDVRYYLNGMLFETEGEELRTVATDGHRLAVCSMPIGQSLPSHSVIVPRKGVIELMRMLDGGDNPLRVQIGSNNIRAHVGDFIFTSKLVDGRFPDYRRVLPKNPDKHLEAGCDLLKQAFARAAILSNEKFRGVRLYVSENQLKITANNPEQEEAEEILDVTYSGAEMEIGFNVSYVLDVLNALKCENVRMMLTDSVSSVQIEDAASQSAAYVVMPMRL

Molecular target: DNA sliding clamp β (E. coli), P0A988
Assay: SEC
Settings: remark: other sources report otherwise

B1: E. coli DNA ligase LigA, P15042 1-671 (enzyme)
chain: MESIEQQLTELRTTLRHHEYLYHVMDAPEIPDAEYDRLMRELRELETKHPELITPDSPTQRVGAAPLAAFSQIRHEVPMLSLDNVFDEESFLAFNKRVQDRLKNNEKVTWCCELKLDGLAVSILYENGVLVSAATRGDGTTGEDITSNVRTIRAIPLKLHGENIPARLEVRGEVFLPQAGFEKINEDARRTGGKVFANPRNAAAGSLRQLDPRITAKRPLTFFCYGVGVLEGGELPDTHLGRLLQFKKWGLPVSDRVTLCESAEEVLAFYHKVEEDRPTLGFDIDGVVIKVNSLAQQEQLGFVARAPRWAVAFKFPAQEQMTFVRDVEFQVGRTGAITPVARLEPVHVAGVLVSNATLHNADEIERLGLRIGDKVVIRRAGDVIPQVVNVVLSERPEDTREVVFPTHCPVCGSDVERVEGEAVARCTGGLICGAQRKESLKHFVSRRAMDVDGMGDKIIDQLVEKEYVHTPADLFKLTAGKLTGLERMGPKSAQNVVNALEKAKETTFARFLYALGIREVGEATAAGLAAYFGTLEALEAASIEELQKVPDVGIVVASHVHNFFAEESNRNVISELLAEGVHWPAPIVINAEEIDSPFAGKTVVLTGSLSQMSRDDAKARLVELGAKVAGSVSKKTDLVIAGEAAGSKLAKAQELGIEVIDEAEMLRLLGS
  binding: no binding (tested: 10 μM)
